Source: patent publication US20250283871A1, “COMPOSITIONS AND METHODS FOR MODULATING THE INTERACTION BETWEEN SS18-SSX FUSION ONCOPROTEIN AND NUCLEOSOMES” (Dana-Farber Cancer Institute, Inc., priority 2020, published 2025)

B1: GCAT (protein, UniProt O75600 22-419, looked up)
2-amino-3-ketobutyrate …: SALAQLRGILEGELEGIRGAGTWKSERVITSRQGPHIRVDGVSGGILNFCANNYLGLSSHPEVIQAGLQALEEFGAGLSSVRFICGTQSIHKNLEAKIARFHQREDAILYPSCYDANAGLFEALLTPEDAVLSDELNHASIIDGIRLCKAHKYRYRHLDMADLEAKLQEAQKHRLRLVATDGAFSMDGDIAPLQEICCLASRYGALVFMDECHATGFLGPTGRGTDELLGVMDQVTIINSTLGKALGGASGGYTTGPGPLVSLLRQRARPYLFSNSLPPAVVGCASKALDLLMGSNTIVQSMAAKTQRFRSKMEAAGFTISGASHPICPVMLGDARLASRMADDMLKRGIFVIGFSYPVVPKGKARIRVQISAVHSEEDIDRCVEAFVEVGRLHGALP
B2: ATAD3B (protein, UniProt Q5T9A4 2-648, looked up)
ATPase family AAA …: SWLFGVNKGPKGEGAGPPPPLPPAQPGAEGGGDRGLGDRPAPKDKWSNFDPTGLERAAKAARELEHSRYAKEALNLAQMQEQTLQLEQQSKLKEYEAAVEQLKSEQIRAQAEERRKTLSEETRQHQARAQYQDKLARQRYEDQLKQQQLLNEENLRKQEESVQKQEAMRRATVEREMELRHKNEMLRVETEARARAKAERENADIIREQIRLKASEHRQTVLESIRTAGTLFGEGFRAFVTDRDKVTATVAGLTLLAVGVYSAKNATAVTGRFIEARLGKPSLVRETSRITVLEALRHPIQVSRRLLSRPQDVLEGVVLSPSLEARVRDIAIATRNTKKNRGLYRHILLYGPPGTGKTLFAKKLALHSGMDYAIMTGGDVAPMGREGVTAMHKLFDWANTSRRGLLLFMDEADAFLRKRATEEISKDLRATLNAFLYHMGQHSNKFMLVLASNLPEQFDCAINSRIDVMVHFDLPQQEERERLVRLHFDNCVLKPATEGKRRLKLAQFDYGRKCSEVARLTEGMSGREIAQLAVSWQATAYASKDGVLTEAMMDACVQDAVQQYRQKMRWLKAEGPGRGVEHPLSGVQGETLTSWSLATDPSYPCLAGPCTFRICSWMGTGLCPGPLSPRMSCGGGRPFCPPGHPLL
B3: ACOT9 (protein, UniProt Q9Y305 22-439, looked up)
Acyl-coenzyme A thioesterase …: LTQGPQNPKKQGIFHIHEVRDKLREIVGASTNWRDHVKAMEERKLLHSFLAKSQDGLPPRRMKDSYIEVLLPLGSEPELREKYLTVQNTVRFGRILEDLDSLGVLICYMHNKIHSAKMSPLSIVTALVDKIDMCKKSLSPEQDIKFSGHVSWVGKTSMEVKMQMFQLHGDEFCPVLDATFVMVARDSENKGPAFVNPLIPESPEEEELFRQGELNKGRRIAFSSTSLLKMAPSAEERTTIHEMFLSTLDPKTISFRSRVLPSNAVWMENSKLKSLEICHPQERNIFNRIFGGFLMRKAYELAWATACSFGGSRPFVVAVDDIMFQKPVEVGSLLFLSSQVCFTQNNYIQVRVHSEVASLQEKQHTTTNVFHFTFMSEKEVPLVFPKTYGESMLYLDGQRHFNSMSGPATLRKDYLVEP
B4: ATP5F1 (protein, UniProt P24539 43-256, looked up)
ATP synthase peripheral stalk …: PVPPLPEYGGKVRYGLIPEEFFQFLYPKTGVTGPYVLGTGLILYALSKEIYVISAETFTALSVLGVMVYGIKKYGPFVADFADKLNEQKLAQLEEAKQASIQHIQNAIDTEKSQQALVQKRHYLFDVQRNNIAMALEVTYRERLYRVYKEVKNRLDYHISVQNMMRRKEQEHMINWVEKHVVQSISTQQEKETIAKCIADLKLLAKKAQAQPVM
B5: RBM15B (protein, UniProt Q8NDT2 1-890, looked up)
Putative RNA-binding protein …: MKRQSERDSSPSGRGSSSSAKRPREREREAEAGGRRAAHKASGGAKHPVPARARDKPRGSGSGGGGHRDGRGTGDANHRASSGRSSGSGAGGGGRGGKASGDPGASGMSPRASPLPPPPPPPGAEPACPGSSAAAPEYKTLLISSLSPALPAEHLEDRLFHQFKRFGEISLRLSHTPELGRVAYVNFRHPQDAREARQHALARQLLLYDRPLKVEPVYLRGGGGSSRRSSSSSAAASTPPPGPPAPADPLGYLPLHGGYQYKQRSLSPVAAPPLREPRARHAAAAFALDAAAAAAVGLSRERALDYYGLYDDRGRPYGYPAVCEEDLMPEDDQRATRNLFIGNLDHSVSEVELRRAFEKYGIIEEVVIKRPARGQGGAYAFLKFQNLDMAHRAKVAMSGRVIGRNPIKIGYGKANPTTRLWVGGLGPNTSLAALAREFDRFGSIRTIDHVKGDSFAYIQYESLDAAQAACAKMRGFPLGGPDRRLRVDFAKAEETRYPQQYQPSPLPVHYELLTDGYTRHRNLDADLVRDRTPPHLLYSDRDRTFLEGDWTSPSKSSDRRNSLEGYSRSVRSRSGERWGADGDRGLPKPWEERRKRRSLSSDRGRTTHSPYEERSRTKGSGQQSERGSDRTPERSRKENHSSEGTKESSSNSLSNSRHGAEERGHHHHHHEAADSSHGKKARDSERNHRTTEAEPKPLEEPKHETKKLKNLSEYAQTLQLGWNGLLVLKNSCFPTSMHILEGDQGVISSLLKDHTSGSKLTQLKIAQRLRLDQPKLDEVTRRIKQGSPNGYAVLLATQATPSGLGTEGMPTVEPGLQRRLLRNLVSYLKQKQAAGVISLPVGGSKGRDGTGMLYAFPPCDFSQQYLQSALRTLGKLEEEHMVIVIVRDTA
B6: PDHB (protein, UniProt P11177 31-359, looked up)
Pyruvate dehydrogenase E1 …: LQVTVRDAINQGMDEELERDEKVFLLGEEVAQYDGAYKVSRGLWKKYGDKRIIDTPISEMGFAGIAVGAAMAGLRPICEFMTFNFSMQAIDQVINSAAKTYYMSGGLQPVPIVFRGPNGASAGVAAQHSQCFAAWYGHCPGLKVVSPWNSEDAKGLIKSAIRDNNPVVVLENELMYGVPFEFPPEAQSKDFLIPIGKAKIERQGTHITVVSHSRPVGHCLEAAAVLSKEGVECEVINMRTIRPMDMETIEASVMKTNHLVTVEGGWPQFGVGAEICARIMEGPAFNFLDAPAVRVTGADVPMPYAKILEDNSIPQVKDIIFAIKKTLNI
B7: ABCB10 (protein, UniProt Q9NRK6 106-738, looked up)
ATP-binding cassette …: AGPGAPRLPRARFPGGPAAAAWAGDEAWRRGPAAPPGDKGRLRPAAAGLPEARKLLGLAYPERRRLAAAVGFLTMSSVISMSAPFFLGKIIDVIYTNPTVDYSDNLTRLCLGLSAVFLCGAAANAIRVYLMQTSGQRIVNRLRTSLFSSILRQEVAFFDKTRTGELINRLSSDTALLGRSVTENLSDGLRAGAQASVGISMMFFVSPNLATFVLSVVPPVSIIAVIYGRYLRKLTKVTQDSLAQATQLAEERIGNVRTVRAFGKEMTEIEKYASKVDHVMQLARKEAFARAGFFGATGLSGNLIVLSVLYKGGLLMGSAHMTVGELSSFLMYAFWVGISIGGLSSFYSELMKGLGAGGRLWELLEREPKLPFNEGVILNEKSFQGALEFKNVHFAYPARPEVPIFQDFSLSIPSGSVTALVGPSGSGKSTVLSLLLRLYDPASGTISLDGHDIRQLNPVWLRSKIGTVSQEPILFSCSIAENIAYGADDPSSVTAEEIQRVAEVANAVAFIRNFPQGFNTVVGEKGVLLSGGQKQRIAIARALLKNPKILLLDEATSALDAENEYLVQEALDRLMDGRTVLVIAHRLSTIKNANMVAVLDQGKITEYGKHEELLSKPNGIYRKLMNKQSFISA
B8: NTPCR (protein, UniProt Q9BSD7 2-190, looked up)
Cancer-related …: ARHVFLTGPPGVGKTTLIHKASEVLKSSGVPVDGFYTEEVRQGGRRIGFDVVTLSGTRGPLSRVGLEPPPGKRECRVGQYVVDLTSFEQLALPVLRNADCSSGPGQRVCVIDEIGKMELFSQLFIQAVRQTLSTPGTIILGTIPVPKGKPLALVEEIRNRKDVKVFNVTKENRNHLLPDIVTCVQSSRK
B9: NIPSNAP1 (protein, UniProt Q9BPW8 36-284, looked up)
Protein NipSnap homolog 1: SKDNEGSWFRSLFVHKVDPRKDAHSTLLSKKETSNLYKIQFHNVKPEYLDAYNSLTEAVLPKLHLDEDYPCSLVGNWNTWYGEQDQAVHLWRFSGGYPALMDCMNKLKNNKEYLEFRRERSQMLLSRRNQLLLEFSFWNEPQPRMGPNIYELRTYKLKPGTMIEWGNNWARAIKYRQENQEAVGGFFSQIGELYVVHHLWAYKDLQSREETRNAAWRKRGWDENVYYTVPLVRHMESRIMIPLKISPLQ
B10: SCAMP3 (protein, UniProt O14828 1-347, looked up)
Secretory carrier-associated …: MAQSRDGGNPFAEPSELDNPFQDPAVIQHRPSRQYATLDVYNPFETREPPPAYEPPAPAPLPPPSAPSLQPSRKLSPTEPKNYGSYSTQASAAAATAELLKKQEELNRKAEELDRRERELQHAALGGTATRQNNWPPLPSFCPVQPCFFQDISMEIPQEFQKTVSTMYYLWMCSTLALLLNFLACLASFCVETNNGAGFGLSILWVLLFTPCSFVCWYRPMYKAFRSDSSFNFFVFFFIFFVQDVLFVLQAIGIPGWGFSGWISALVVPKGNTAVSVLMLLVALLFTGIAVLGIVMLKRIHSLYRRTGASFQKAQQEFAAGVFSNPAVRTAAANAAAGAAENAFRAP
B11: CHCHD3 (protein, UniProt Q9NX63 2-227, looked up)
MICOS complex subunit MIC19: GGTTSTRRVTFEADENENITVVKGIRLSENVIDRMKESSPSGSKSQRYSGAYGASVSDEELKRRVAEELALEQAKKESEDQKRLKQAKELDRERAAANEQLTRAILRERICSEEERAKAKHLARQLEEKDRVLKKQDAFYKEQLARLEERSSEFYRVTTEQYQKAAEEVEAKFKRYESHPVCADLQAKILQCYRENTHQTLKCSALATQYMHCVNHAKQSMLEKGG

Test system: BAF complex subunits and histone proteins
Test: Mass spectrometry proteomics of purified HA-SS18 WT and HA-SS18-SSX1 complexes (Tables 5A-5E)
Design: species or system human
Conditions: HEK-293T; for Total (peptides) / Unique (peptides): HA-SS18WT_NE_peptides: HA-SS18 WT complexes purified from nuclear extract (NE), label = protein identified (Gene Symbol)
[1] = HA-SS18SSX1 purification, NE (soluble nuclear extract) fraction, peptides per identified protein
[2] = HA-SS18WT_CHR_peptides: protein identified in HA-SS18 WT BAF complex purification from nuclease-treated solubilized chromatin (CHR)

Molecule | Total (total peptides) [1] | Unique (unique peptides) [1] | Total (peptides) | Unique (peptides) | Total (total peptides) [2] | Unique (unique peptides) [2]
B1 | 4 | 4 | 3 | 3 | – | –
B2 | 4 | 4 | 4 | 4 | – | –
B3 | 5 | 5 | 4 | 4 | – | –
B4 | 5 | 4 | 4 | 4 | – | –
B5 | 5 | 5 | 6 | 5 | – | –
B6 | 5 | 4 | 10 | 8 | – | –
B7 | 4 | 4 | 5 | 5 | – | –
B8 | 4 | 4 | 5 | 5 | – | –
B9 | 4 | 4 | 6 | 6 | – | –
B10 | 4 | 4 | 5 | 5 | – | –
B11 | 4 | 4 | 3 | 3 | 1 | 1
